# Where a chain is given by its changes, count along the chain named. Results are given in words; binding and its absence hold for the method and conditions named. Some results given as binding are weak or reduced against the parent protein; the word gives no strength. For some assays here: Where a sequence is shown, tags or fusion partners need not be part of it.
# The chains behind the UniProt entries cited, without tags or fusion partners. Where a name states a change or a piece, a line headed by the entry shows the natural chain unless it says otherwise.
# UniProt P17301: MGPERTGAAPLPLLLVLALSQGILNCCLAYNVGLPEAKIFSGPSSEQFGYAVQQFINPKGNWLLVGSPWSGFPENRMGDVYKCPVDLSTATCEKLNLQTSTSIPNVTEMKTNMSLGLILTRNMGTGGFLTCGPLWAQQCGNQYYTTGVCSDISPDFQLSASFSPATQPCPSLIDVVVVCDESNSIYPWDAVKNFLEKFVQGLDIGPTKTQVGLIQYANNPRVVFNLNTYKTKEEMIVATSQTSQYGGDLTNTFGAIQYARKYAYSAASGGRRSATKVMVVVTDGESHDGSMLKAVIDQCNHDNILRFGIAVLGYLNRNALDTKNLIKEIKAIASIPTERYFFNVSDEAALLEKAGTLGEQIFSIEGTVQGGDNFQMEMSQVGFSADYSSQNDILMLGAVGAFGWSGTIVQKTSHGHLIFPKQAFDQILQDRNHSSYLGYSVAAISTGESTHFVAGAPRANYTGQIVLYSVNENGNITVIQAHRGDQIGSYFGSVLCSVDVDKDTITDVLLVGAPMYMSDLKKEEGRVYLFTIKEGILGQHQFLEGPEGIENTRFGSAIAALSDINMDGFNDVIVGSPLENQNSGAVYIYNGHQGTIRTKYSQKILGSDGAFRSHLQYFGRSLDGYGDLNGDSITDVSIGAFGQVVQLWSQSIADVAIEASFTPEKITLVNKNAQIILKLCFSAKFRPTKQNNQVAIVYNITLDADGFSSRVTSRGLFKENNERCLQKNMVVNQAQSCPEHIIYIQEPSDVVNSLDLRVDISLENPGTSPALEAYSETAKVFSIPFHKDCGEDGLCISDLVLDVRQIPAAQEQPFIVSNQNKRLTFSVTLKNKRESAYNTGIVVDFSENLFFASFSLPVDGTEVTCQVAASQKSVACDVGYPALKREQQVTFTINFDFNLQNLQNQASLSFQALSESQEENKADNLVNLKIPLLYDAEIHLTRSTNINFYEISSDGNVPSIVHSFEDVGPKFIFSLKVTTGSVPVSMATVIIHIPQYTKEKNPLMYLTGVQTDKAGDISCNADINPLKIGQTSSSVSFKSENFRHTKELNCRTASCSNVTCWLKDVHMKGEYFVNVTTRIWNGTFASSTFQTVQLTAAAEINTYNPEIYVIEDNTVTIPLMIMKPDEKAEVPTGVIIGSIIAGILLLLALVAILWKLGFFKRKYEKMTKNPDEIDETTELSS
# B1: humanized anti-α2-integrin mAb LC4/HC5 (antibody, IgG4, V domains shown)
# VH: QVQLHQPGAELVKPGASVKLSCKASGYTFTSYWMNWVKQRPGRGLEWIGRIDPSESETHYNQKFKDKATLTVDKSSSTAYIQLSSLTSEDSAVYYCAKVGRGYFDYWGQGTTLTVVS
# VL: NIVLTQSPSSLSVSVGQRATISCRASESVESYGQSFIYWYQQKPGQAPKLLIYLASNLASGVPARFSGSGSRTDFTLTIDPVQAEDAATYYCQQNNEDPYTFGGGTKLEIK
# B2: humanized anti-α2-integrin mAb LC4/HC6 (antibody, IgG4, V domains shown)
# VH: B1 VH with V93K
# VL: B1 VL
# B3: humanized anti-α2-integrin mAb LC5/HC7 (antibody, IgG4, V domains shown)
# VH: QVQLVQSGAEVKKPGASVKVSCKASGYTFTSYWMNWVRQAPGQGLEWIGRIDPSDSETHYAQKFQGRATLTVDKSTSTAYMELSSLRSEDTAVYYCAKVGRGYFDYWGQGTLVTVSS
# VL: NIVLTQSPASLAVSPGQRATITCRASESVESYGNSFIYWYQQKPGQPPKLLIYLASNLASGVPARFSGSGSRTDFTLTINPVEADDTANYYCQQNNEDPYTFGGGTKLEIK
# B4: TMC2206, humanized hIgG4 anti-alpha 2 integrin antibody (comparator) (antibody, V domains shown)
# VH: QVQLQESGPGLVKPSETLSLTCTVSGFSLTNYGIHWIRQPPGKGLEWLGVIWARGFTNYNSALMSRLTISKDNSKNQVSLKLSSVTAADTAVYYCARANDGVYYAMDYWGQGTLVTVSS
# VL: DFVMTQSPAFLSVTPGEKVTITCSAQSSVNYIHWYQQKPDQAPKKLIYDTSKLASGVPSRFSGSGSGTDYTFTISSLEAEDAATYYCQQWTTNPLTFGQGTKVEIKR
# B5: chimeric anti α2-integrin-Fab (6xHis tagged CH1 of human IGHG1) (Fab, V domains shown)
# VH: B1 VH with S17P, E55D, V116S
# VL: NIVLTQSPASLAVSLGQRATISCRASESVESYGNSFIYWYQQKPGQAPKLLIYLASNLASGVPARFSGSGSRTDFTLTIDPVEADDAATYYCQQNNEDPYTFGGGTKLEIKR
# B6: humanized anti-α2-integrin mAb LC1/HC1 (antibody, IgG4, V domains shown)
# VH: B1 VH with S17P, R43Q, E55D, K67R
# VL: B1 VL with S12A, Q34N, Q46K, E85D
# B7: humanized anti-α2-integrin mAb LC2/HC2 (antibody, IgG4, V domains shown)
# VH: B1 VH with S17P, R43Q, K67R
# VL: B1 VL with S12A, Q46K, E85D
# B8: humanized anti-α2-integrin mAb LC3/HC3 (antibody, IgG4, V domains shown)
# VH: B1 VH with E55D
# VL: B1 VL with Q34N
# B9: humanized anti-α2-integrin mAb LC3/HC4 (antibody, IgG4, V domains shown)
# VH: B1 VH with E55D, V93K
# VL: B1 VL with Q34N
# Legend:
# [1] = biological target: human integrin α2 I domain, recombinantly expressed in E. coli (human) (UniProt P17301); test: SPR Biacore 3000 (Example 7)
# [2] = biological target: human integrin α2 I domain, recombinantly expressed in E. coli (human) (UniProt P17301); test: Biacore, antibody captured by anti-human Fc antibody, integrin α2 I domain as analyte
# [3] = biological target: human integrin α2 I domain, recombinantly expressed in E. coli (human) (UniProt P17301); test: SPR Biacore 3000, antibody captured by anti-human Fc, I domain as analyte
# [4] = biological target: human integrin α2 I domain, recombinantly expressed in E. coli (human) (UniProt P17301); test: Biacore, TMC2206 captured on anti-human Fc antibody (MAB 1302), integrin I domain injected
# [5] = biological target: human integrin α2 I domain, recombinantly expressed in E. coli (human) (UniProt P17301); test: SPR Biacore, I domain captured on immobilised non-humanized Fab
# [6] = biological target: human integrin α2 I domain, recombinantly expressed in E. coli (human) (UniProt P17301); test: Biacore, TMC2206 injected over integrin I domain pre-bound by the immobilised non-humanized Fab
# [7] = biological target: human integrin α2 I domain, recombinantly expressed in E. coli (human) (UniProt P17301); test: SPR Biacore 3000
# [8] = biological target: human integrin α2 I domain, recombinantly expressed in E. coli (human) (UniProt P17301); test: Biacore, Fab immobilised on a CM5 chip by amine coupling, integrin I domain captured by the Fab
# [9] = biological target: human integrin α2 I domain, recombinantly expressed in E. coli (human) (UniProt P17301); test: SPR Biacore, I domain bound to captured TMC2206
# [10] = biological target: human integrin α2 I domain, recombinantly expressed in E. coli (human) (UniProt P17301); test: SPR Biacore, I domain bound to TMC2206 captured on anti-human Fc
# [11] = biological target: human integrin α2 I domain, recombinantly expressed in E. coli (human) (UniProt P17301); test: Biacore, non-humanized Fab injected over integrin I domain pre-bound by captured TMC2206
Binder,binding [1],binding [2],binding [3],other results
B1,binds,binds,,
B2,binds,binds,,
B3,,binds,binds,
B4,,binds,,binding [4]: binds; binding [5]: binds; binding [6]: binds
B5,,,,binding [7]: binds; binding [8]: binds; binding [9]: binds; binding [10]: binds; binding [11]: binds
B6,,binds,binds,
B7,binds,binds,,
B8,,binds,binds,
B9,,binds,binds,

# — patent US20130156786A1
